Taken from: PubChem BioAssay AID1259405 (NCATS, 2018)
Purpose: 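Knock-downs that lift recombinant protein yield in hamster ovary cells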 (primary screen). System: Chinese hamster CHO-K1 ovary cells with stable secreted eGFP expression. Reagents: single siRNA against mouse genes, 0.8 pmol siRNA per well (2 µl of 400 nM stock). Duration: 3 days. Measurement: 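Percent of the per-plate non-targeting control median for intracellular GFP per well by laser scanning cytometry and for cell viability by ATP luminescence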. Reading the numbers: GFP, % of control: higher = more GFP per well, higher productivity; viability (ATP), % of control: higher = more viable cells (more ATP). Rule for the call: 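Called active when intracellular GFP, relative to negative control, is at or above 120%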.
This is a random part of about 50,000 reagents. About 4,000 of them (8%) count as active. 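Mouse siRNA library applied to hamster cells; one well for each siRNA.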 A number with no mark means an inactive call. The numbers tell different reagents against one gene apart.

The first 3 entries as a preview:
{"target gene": "Rock2", "reagent no.": 1, "GFP, % of control": 50.2, "viability (ATP), % of control": 57.3}
{"target gene": "Llgl2", "reagent no.": 1, "GFP, % of control": 60.3, "viability (ATP), % of control": 53.1}
{"target gene": "Llgl2", "reagent no.": 2, "GFP, % of control": 59.8, "viability (ATP), % of control": 74.6}

The listing, repeating the preview:
{"target gene": "Rock2", "reagent no.": 1, "GFP, % of control": 50.2, "viability (ATP), % of control": 57.3}
{"target gene": "Llgl2", "reagent no.": 1, "GFP, % of control": 60.3, "viability (ATP), % of control": 53.1}
{"target gene": "Llgl2", "reagent no.": 2, "GFP, % of control": 59.8, "viability (ATP), % of control": 74.6}
{"target gene": "Llgl2", "reagent no.": 3, "GFP, % of control": 51.9, "viability (ATP), % of control": 39}
{"target gene": "Nectin3", "reagent no.": 1, "GFP, % of control": 108, "viability (ATP), % of control": 110}
{"target gene": "Nectin3", "reagent no.": 2, "GFP, % of control": 89.1, "viability (ATP), % of control": 81.2}
{"target gene": "Nectin3", "reagent no.": 3, "GFP, % of control": 78.8, "viability (ATP), % of control": 112}
{"target gene": "Adgrd1", "reagent no.": 1, "GFP, % of control": "121 (active)", "viability (ATP), % of control": 99}
{"target gene": "Adgrd1", "reagent no.": 2, "GFP, % of control": 112, "viability (ATP), % of control": 64}
{"target gene": "Adgrd1", "reagent no.": 3, "GFP, % of control": 87.3, "viability (ATP), % of control": 112}
{"target gene": "Nmnat2", "reagent no.": 1, "GFP, % of control": 103, "viability (ATP), % of control": 80}
{"target gene": "Nmnat2", "reagent no.": 2, "GFP, % of control": 85.4, "viability (ATP), % of control": 77.4}
{"target gene": "Nmnat2", "reagent no.": 3, "GFP, % of control": 44.8, "viability (ATP), % of control": 40.4}
{"target gene": "Rpl28", "reagent no.": 1, "GFP, % of control": 58.7, "viability (ATP), % of control": 62}
{"target gene": "Rpl28", "reagent no.": 2, "GFP, % of control": 89.6, "viability (ATP), % of control": 70.5}
{"target gene": "Rpl28", "reagent no.": 3, "GFP, % of control": 27.8, "viability (ATP), % of control": 25.5}
{"target gene": "Rps28", "reagent no.": 1, "GFP, % of control": 57.7, "viability (ATP), % of control": 57.3}
{"target gene": "Rps28", "reagent no.": 2, "GFP, % of control": "133 (active)", "viability (ATP), % of control": 82}
{"target gene": "Rps28", "reagent no.": 3, "GFP, % of control": 49.9, "viability (ATP), % of control": 27.1}
{"target gene": "Vmn1r205", "reagent no.": 1, "GFP, % of control": 53.6, "viability (ATP), % of control": 59.5}
{"target gene": "Vmn1r205", "reagent no.": 2, "GFP, % of control": 46.1, "viability (ATP), % of control": 42.2}
{"target gene": "Vmn1r205", "reagent no.": 3, "GFP, % of control": 106, "viability (ATP), % of control": 93.9}
{"target gene": "Ythdf3", "reagent no.": 1, "GFP, % of control": 76.6, "viability (ATP), % of control": 48.2}
{"target gene": "Ythdf3", "reagent no.": 2, "GFP, % of control": 78.4, "viability (ATP), % of control": 78.3}
{"target gene": "Ythdf3", "reagent no.": 3, "GFP, % of control": 69, "viability (ATP), % of control": 81.1}
{"target gene": "Snupn", "reagent no.": 1, "GFP, % of control": 115, "viability (ATP), % of control": 80.7}
{"target gene": "Snupn", "reagent no.": 2, "GFP, % of control": 20.2, "viability (ATP), % of control": 45.5}
{"target gene": "Ecm1", "reagent no.": 1, "GFP, % of control": 99.1, "viability (ATP), % of control": 68.3}
{"target gene": "Ecm1", "reagent no.": 2, "GFP, % of control": 94.3, "viability (ATP), % of control": 98.9}
{"target gene": "Ecm1", "reagent no.": 3, "GFP, % of control": 72.1, "viability (ATP), % of control": 79.8}
{"target gene": "Rtkn2", "reagent no.": 1, "GFP, % of control": 90.8, "viability (ATP), % of control": 64.2}
{"target gene": "Rtkn2", "reagent no.": 2, "GFP, % of control": 99.8, "viability (ATP), % of control": 70.1}
{"target gene": "Rtkn2", "reagent no.": 3, "GFP, % of control": 61.5, "viability (ATP), % of control": 65.9}
{"target gene": "Plekhh3", "reagent no.": 1, "GFP, % of control": 84.6, "viability (ATP), % of control": 82.8}
{"target gene": "Plekhh3", "reagent no.": 2, "GFP, % of control": 85.2, "viability (ATP), % of control": 118}
{"target gene": "Plekhh3", "reagent no.": 3, "GFP, % of control": "139 (active)", "viability (ATP), % of control": 153}
{"target gene": "Tmem178", "reagent no.": 1, "GFP, % of control": 60.4, "viability (ATP), % of control": 91.3}
{"target gene": "Tmem178", "reagent no.": 2, "GFP, % of control": 80.4, "viability (ATP), % of control": 72.1}
{"target gene": "Tmem178", "reagent no.": 3, "GFP, % of control": 60.2, "viability (ATP), % of control": 61.1}
{"target gene": "Or56b1", "reagent no.": 1, "GFP, % of control": 33.9, "viability (ATP), % of control": 37.4}
{"target gene": "Or56b1", "reagent no.": 2, "GFP, % of control": 101, "viability (ATP), % of control": 87.7}
{"target gene": "Or56b1", "reagent no.": 3, "GFP, % of control": 15.2, "viability (ATP), % of control": 18.1}
{"target gene": "Cdc73", "reagent no.": 1, "GFP, % of control": 56.2, "viability (ATP), % of control": 71.5}
{"target gene": "Cdc73", "reagent no.": 2, "GFP, % of control": 40.6, "viability (ATP), % of control": 37.7}
{"target gene": "Cdc73", "reagent no.": 3, "GFP, % of control": "156 (active)", "viability (ATP), % of control": 107}
{"target gene": "Vash1", "reagent no.": 1, "GFP, % of control": 73.6, "viability (ATP), % of control": 70.1}
{"target gene": "Vash1", "reagent no.": 2, "GFP, % of control": 81.4, "viability (ATP), % of control": 75.2}
{"target gene": "Vash1", "reagent no.": 3, "GFP, % of control": "133 (active)", "viability (ATP), % of control": 86.3}
{"target gene": "Tmeff2", "reagent no.": 1, "GFP, % of control": 106, "viability (ATP), % of control": 76.9}
{"target gene": "Tmeff2", "reagent no.": 2, "GFP, % of control": 48.6, "viability (ATP), % of control": 60.3}
{"target gene": "Tmeff2", "reagent no.": 3, "GFP, % of control": 59.1, "viability (ATP), % of control": 65.4}
{"target gene": "Rbm5", "reagent no.": 1, "GFP, % of control": "123 (active)", "viability (ATP), % of control": 96.7}
{"target gene": "Rbm5", "reagent no.": 2, "GFP, % of control": 85.4, "viability (ATP), % of control": 84}
